# Test results taken from the supplement of paper PMC8728848.
# Some of the results follow.
# Experiments:
# [1] = molecular target: Neu5Gc(a2-8)Neu5Gc(a2-6)Gal(b1-4)GlcNAc; experiment: glycan array binding signal (z-score within array); higher = stronger binding; conditions: glycan notation: IUPAC condensed, linker removed
# How it was run: (§1)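 Glycan array data were curated from 3228 arrays in the Consortium for Functional Glycomics database and kept only where the protein sequence was available. Glycan names were converted to IUPAC-condensed notation, and columns mapping to the same glycan were averaged. The binding signal is a within-array Z-score, averaged across arrays of the same protein sequence at different concentrations or buffers and across linkers. Negative Z-scores can be read as non-binding.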
# [2] = molecular target: Neu5Gc(b2-6)Gal(b1-4)GlcNAc; experiment: as above; conditions: glycan notation: IUPAC condensed, linker removed
# How it was run: as §1
binder,measurement,setting,value
EUL D1A first (Oryza sativa) (protein) MFGFGHHHNQAPAAPSDPNQIFKIFCRANENYCLTVRDSAVVLAPVNPKDEHQHWFKDMRFSTKVKDGEGMPAFALVNKATGLAVKHSLGQSHPVKLVPFNPEYEDASVLWTESKDVGKGFRCIRMVNNTRLNLDAFHGDKDHGGVRDGTTVVLWEWCKGDNQSWKILPWGPEAHSSSPGAATILEQKLISEEDLNSAVDHHHHHH,glycan array binding signal (z-score),[1],0.518
same,glycan array binding signal (z-score),[2],0.976
